# Data as given in patent US9249102B2 (priority 2012, dated 2016).
# How the values were obtained:
# [1] = tested on: Haemonchus contortus; experiment: Method A: Haemonchus contortus L1 larvae, microtitre plate screen; conditions: 96 h, read-out: motility inhibition
# [2] = tested on: Cooperia oncophora; experiment: Method C: Cooperia oncophora L1 larvae in vitro; conditions: 96 h, read-out: inhibition of motility
# [3] = tested on: microfilaria of Dirofilaria immitis; experiment: Method F: microfilaria of Dirofilaria immitis, survival at 24 hours
compound,measurement,setting,value
"O=C(CO[C@H]1CC[C@H](Nc2ccc([N+](=O)[O-])c(C(F)(F)F)c2)CC1)N1CCN(c2ccc3cc(F)ccc3n2)CC1 [Compound 97, 1-[4-(6-fluoroquinolin-2-yl)piperazin-1-yl]-2-[(4-[[4-nitro-3-(trifluoromethyl)phenyl]amino]cyclohexyl)oxy]ethan-1-one]",inhibition at 5 µg/mL,[1],≥ 90%
same,inhibition at 5 µg/mL,[2],≥ 90%
same,EC50,[3],< 1 µg/mL
